Values from PubChem BioAssay AID686938 (Drosophila RNAi Screening Center, 2013).
The deposit covers about 23,000 reagents; shown is a random part of those that have a named target and a result. In the full data, 75 (0.33%) were called active. 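Raw plate signals without normalisation; calls rest on plate z-scores that were not deposited; ratio present for only 364 wells.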 A plus sign joins genes that one reagent is predicted to hit. Not given: the dose of the treatment.

Aim: 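Knock-downs reducing store-operated calcium influx in Drosophila cells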 (primary screen)
Cells: Drosophila S2R+ cells
Knock-down reagent: long dsRNA against Drosophila genes, about 0.25 µg dsRNA per well, roughly 10,000 cells
Duration: 5 days of knock-down before the calcium assay
Challenge: thapsigargin (SERCA pump blocker) to empty calcium stores; entry signal taken 4 min after adding it
Measured: 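Duplicate raw fluo-4 intensities per well from a plate reader, at rest and four minutes after thapsigargin emptied calcium stores; entry-to-rest ratio filled for only some wells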
Reading the numbers: calcium entry signal: higher = stronger calcium signal after store depletion; entry to resting ratio: higher = more calcium entry relative to resting level; resting calcium signal: higher = higher resting calcium signal
Call rule: 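Called when the plate z-score of the entry-to-rest ratio, mean of duplicates, falls below −3; wells with low overall dye signal (Fmax z below −2) or more than five off-targets excluded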
Meaning of the calls: active = strongly reduced calcium entry; inactive = no strong reduction

Gene | DRSC id | calcium entry signal, replicate 1 (fluorescence units) | calcium entry signal, replicate 2 (fluorescence units) | entry to resting ratio | resting calcium signal, replicate 1 (fluorescence units) | resting calcium signal, replicate 2 (fluorescence units) | Outcome
CG12065 (GeneID 31798) | DRSC17798 | 2.81e7 | 3.57e7 | – | 1.38e7 | 1.60e7 | inactive
CG12065 (GeneID 31798) | DRSC17799 | 3.87e7 | 3.82e7 | – | 1.96e7 | 1.99e7 | inactive
CG2247 (GeneID 32111) | DRSC19844 | 2.91e7 | 3.83e7 | – | 1.43e7 | 1.84e7 | inactive
Nlg4 (GeneID 42402) | DRSC15108 | 4.50e7 | 4.06e7 | – | 4.94e7 | 1.75e7 | inactive
Nlg4 (GeneID 42402) | DRSC15109 | 3.53e7 | 3.67e7 | – | 1.96e7 | 1.59e7 | inactive
Nlg4 (GeneID 42402) | DRSC15700 | 4.12e7 | 3.65e7 | – | 5.64e7 | 1.69e7 | inactive
Nlg4 (GeneID 42402) | DRSC15701 | 3.28e7 | 3.12e7 | – | 3.34e7 | 1.62e7 | inactive
Nlg4 (GeneID 42402) | DRSC22243 | 2.98e7 | 3.94e7 | – | 1.55e7 | 2.17e7 | inactive
CG34289 (GeneID 5740640) | DRSC13625 | 3.35e7 | 2.97e7 | – | 1.37e7 | 1.56e7 | inactive
Fpgs2 (GeneID 326159) | DRSC00600 | 3.87e7 | 3.35e7 | – | 1.89e7 | 1.63e7 | inactive
CG31777 (GeneID 261617) | DRSC00201 | 2.08e7 | 3.44e7 | – | 1.22e7 | 1.51e7 | inactive
CG32650 (GeneID 326227) | DRSC19899 | 4.23e7 | 4.54e7 | – | 1.94e7 | 2.02e7 | inactive
Diap2 (GeneID 36748) | DRSC07444 | 2.71e7 | 2.28e7 | – | 1.29e7 | 1.45e7 | inactive
sunn (GeneID 326196) | DRSC21659 | 3.81e7 | 4.08e7 | – | 2.31e7 | 1.79e7 | inactive
IntS14 (GeneID 33300) | DRSC00668 | 4.51e7 | – | – | 2.45e7 | – | inactive
Nxt1 (GeneID 37769) | DRSC04630 | 2.84e7 | 3.27e7 | – | 1.73e7 | 1.92e7 | inactive
yip7 (GeneID 38680) | DRSC11410 | 2.42e7 | 5.41e7 | – | 1.18e7 | 2.31e7 | inactive
CG31688 + CG31687 | DRSC02116 | 4.22e7 | 5.48e7 | – | 1.94e7 | 2.52e7 | inactive
Alp8 (GeneID 37540) | DRSC04353 | 4.18e7 | 4.82e7 | – | 2.08e7 | 2.28e7 | inactive
CG8677 (GeneID 35397) | DRSC03107 | 3.81e7 | – | – | 1.99e7 | – | inactive
Cyp305a1 (GeneID 40161) | DRSC11126 | 3.13e7 | 3.90e7 | – | 1.44e7 | 2.39e7 | inactive
CG30279 (retired record) (GeneID 246524) | DRSC22417 | 3.17e7 | 3.71e7 | – | 1.64e7 | 1.49e7 | inactive
CG10804 (GeneID 31317) | DRSC17764 | 4.97e7 | 5.05e7 | – | 2.17e7 | 2.25e7 | inactive
CG10064 (GeneID 38761) | DRSC09689 | 3.55e7 | 4.10e7 | – | 1.71e7 | 1.85e7 | inactive
msi (GeneID 43087) | DRSC17003 | 2.41e7 | 2.19e7 | – | 1.44e7 | 1.25e7 | inactive
Dip-C (GeneID 47769) | DRSC15855 | 3.82e7 | 4.82e7 | – | 1.65e7 | 2.02e7 | inactive
Fas3 (GeneID 35097) | DRSC01638 | 3.05e7 | 3.27e7 | – | 1.76e7 | 1.61e7 | inactive
Fas3 (GeneID 35097) | DRSC03326 | 4.96e7 | 4.05e7 | – | 2.20e7 | 1.80e7 | inactive
Fas3 (GeneID 35097) | DRSC22776 | 4.44e7 | 3.31e7 | – | 2.54e7 | 1.54e7 | inactive
enc (GeneID 44543) | DRSC08716 | 3.65e7 | 4.17e7 | – | 1.90e7 | 1.93e7 | inactive
FASN3 (GeneID 3355111) | DRSC20882 | 3.94e7 | 3.81e7 | – | 2.19e7 | 1.77e7 | inactive
CG11396 (GeneID 40296) | DRSC11654 | 3.06e7 | 5.09e7 | – | 1.48e7 | 1.99e7 | inactive
CG3770 (GeneID 37991) | DRSC04416 | 2.97e7 | – | – | 1.36e7 | – | inactive
CG34015 (GeneID 3885570) | DRSC19140 | 3.47e7 | 3.66e7 | – | 1.72e7 | 1.68e7 | inactive
CG6951 (GeneID 40222) | DRSC10755 | 1.85e7 | 3.26e7 | – | 1.03e7 | 1.65e7 | inactive
CG15877 (GeneID 38304) | DRSC08485 | 3.52e7 | 4.16e7 | – | 1.86e7 | 1.82e7 | inactive
Vml (GeneID 5740271) | DRSC17695 | 5.47e7 | 4.95e7 | – | 2.58e7 | 2.01e7 | inactive
Vml (GeneID 5740271) | DRSC18529 | 3.61e7 | 4.57e7 | 2 | 1.81e7 | 2.06e7 | inactive
Asator (GeneID 43794) | DRSC17136 | 3.99e7 | 6.74e7 | 2 | 2.04e7 | 2.41e7 | inactive
CG14011 (GeneID 33790) | DRSC02343 | 2.70e7 | 2.63e7 | – | 1.38e7 | 1.33e7 | inactive
CG42262 (retired record) (GeneID 50410) | DRSC17628 | 2.59e7 | 3.79e7 | – | 1.26e7 | 1.68e7 | inactive
CG42262 (retired record) (GeneID 50410) | DRSC17974 | 3.43e7 | 4.59e7 | – | 1.67e7 | 2.01e7 | inactive
Nup205 (GeneID 33002) | DRSC19432 | 2.81e7 | 2.67e7 | – | 1.57e7 | 1.44e7 | inactive
CG2841 (GeneID 44529) | DRSC17699 | 4.82e7 | 5.55e7 | – | 2.30e7 | 2.78e7 | inactive
CG2841 (GeneID 44529) | DRSC18824 | 3.27e7 | 3.51e7 | 2.1 | 1.54e7 | 1.63e7 | inactive
CG2841 (GeneID 44529) | DRSC22106 | 3.79e7 | 4.12e7 | – | 2.05e7 | 2.33e7 | inactive
CG12539 (GeneID 32412) | DRSC19470 | 3.96e7 | 3.72e7 | – | 2.18e7 | 1.75e7 | inactive
Septin4 (GeneID 32646) | DRSC20205 | 2.82e7 | 2.88e7 | – | 1.48e7 | 1.36e7 | inactive
CG11269 (GeneID 37527) | DRSC04094 | 4.21e7 | 5.53e7 | – | 2.06e7 | 2.33e7 | inactive
CG42841 (GeneID 10178933) | DRSC07962 | 3.57e7 | 4.48e7 | – | 1.78e7 | 2.04e7 | inactive
CG7366 (GeneID 38918) | DRSC10825 | 2.57e7 | 1.95e7 | – | 1.31e7 | 1.06e7 | inactive
ND-51L1 (GeneID 36998) | DRSC06072 | 5.07e7 | 5.86e7 | – | 2.20e7 | 2.66e7 | inactive
CG10764 (GeneID 36962) | DRSC06000 | 3.03e7 | 2.74e7 | – | 1.25e7 | 1.35e7 | inactive
Rab14 (GeneID 34840) | DRSC03403 | 4.28e7 | – | – | 2.06e7 | – | inactive
CG15097 (GeneID 37172) | DRSC06526 | 2.25e7 | 2.34e7 | – | 1.23e7 | 1.19e7 | inactive
fest (GeneID 37220) | DRSC07349 | 3.55e7 | 3.83e7 | – | 1.72e7 | 1.91e7 | inactive
mRF1 (GeneID 34720) | DRSC02880 | 4.62e7 | – | – | 2.42e7 | – | inactive
Polr1B (GeneID 33210) | DRSC00780 | 2.41e7 | – | – | 1.25e7 | – | inactive

A stretch taken from the entries so far, as a working copy:
Gene | DRSC id | calcium entry signal, replicate 1 (fluorescence units) | calcium entry signal, replicate 2 (fluorescence units) | entry to resting ratio | resting calcium signal, replicate 1 (fluorescence units) | resting calcium signal, replicate 2 (fluorescence units) | Outcome
CG11269 (GeneID 37527) | DRSC04094 | 4.21e7 | 5.53e7 | – | 2.06e7 | 2.33e7 | inactive
CG42841 (GeneID 10178933) | DRSC07962 | 3.57e7 | 4.48e7 | – | 1.78e7 | 2.04e7 | inactive
CG7366 (GeneID 38918) | DRSC10825 | 2.57e7 | 1.95e7 | – | 1.31e7 | 1.06e7 | inactive
